The assay addresses T1, GST fusion protein of VPAC1 extracellular loop 3 (human).
T1 sequence: PDNFKPEVKMLFE
Put plainly: western blotting of GST-loop fusion proteins.

Results are given in words; binding and its absence hold for the method and conditions named. Some results given as binding are weak or reduced against the parent protein; the word gives no strength. Sequences can lack the tags named with a protein.

B1: murine monoclonal anti-VPAC1 antibody 23A11 (antibody, V domains shown)
VH: EVQLQESGPSLVKPSQTLSLTCSVTGDSITSGYWNWIRKFPGNKLEYMGYIRYSGSTYYSPALKSRFSITRDTSKNQYYLQLNSVTTEDTATYYCSNWAYWGQGTLVTVSA
VL: DIVITQDELSNPVTSGESVSISCRSSKSLLYKDGKTYLNWFLQRPGQSPQLLIYLMSTRASGVSDRFSGSGSGTDFTLEISRVKAEDVGVYYCQQLVEYPLTFGAGTKLELK
notes: Murine hybridoma antibody (BALB/c mice); also called murine 23A11; anti-VPAC1 receptor antibody 23A11
For B1, the binding entry was “binds”.
